# Laboratory results from PubChem BioAssay AID1347426 (Functional Genomics Laboratory (NCATS/FGL), 2020).
# The whole screen tested about 31,000 sequences, of which about 1,400 (4.5%) were called active.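 The calls were made as follows: active = median seed-adjusted z-score above 1 or below -1; inactive = the rest.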 This is one part of the list.
# Assay: Novel Modifiers of Survival Motor Neuron (SMN) Protein: Gene Identification via Genome-wide siRNA Screen;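 also: luminescence tracks full-length SMN protein made from the SMN2 reporter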
# Settings: HEK293T SMN2-luciferase reporter, siRNA knockdown, 72 h; actives lie on both sides
# Summary of the method: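 Luciferase signal, proportional to full-length SMN made from an SMN2 cDNA reporter in stable HEK293T cells, was read 72 h after siRNA reverse transfection. Values were expressed as MAD scores after non-targeting-control normalization and log10 conversion; seed analysis flagged off-targets.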
row,Sequence,median seed-adjusted z-score
1,GCACCAUUCUAACAAUGGATT against NANS,active: -1.54
2,CCAAUUCUCUACGUCUUUATT against FPR3,inactive: -0.605
3,GGCACUCCGUUUCCCAAGATT against MOBKL2A,inactive: 0.268
4,GAAUGUCCAUAUUGUAGUATT against FANCL,inactive: -0.0823
5,GGUUGUUGCUGGAUGCUCUTT against RARRES3,inactive: -0.033
6,CAAGUUUCACGUCAAGUUUTT against KCNT1,inactive: 0.379
7,GCUGGAUUCCAUUAAAACATT against CA2,inactive: 0.328
8,ACAUCGUCCACUUCCAGUATT against OAZ2,inactive: 0.66
9,AGUCUGUUGGUGCUAAAAATT against TIMM8B,inactive: -0.853
10,GUGUCGUCGUAGAAAGAGATT against WEE1,active: -4.05
11,GCUUACUUACAGAAAUCAATT against STX19,inactive: 0.143
12,CGAUAUUUAUCCUUACCUATT against SLC9A2,active: -1.02
13,UCAUCAUGGUCAUCGCUUUTT against RHO,inactive: -0.267
14,CCUUACUGUUUUUCACGAATT against APC,inactive: 0.154
15,CAUUCAUCUCAAUAAUUGATT against IL5RA,inactive: -0.357
16,CUGUUGGAAUGGACUAAAATT against MXD3,inactive: 0.482
17,ACUUAUCCCAGAUUCCUGATT against BMP6,inactive: 0.301
18,GUGUGAAACUAUUCGACCATT against PHTF2,inactive: 0.389
19,CGGAUGAACAAGAAAGUUUTT against SGTB,inactive: -0.0165
20,GGUUUUGGAUUGCAUAGAATT against DGKB,inactive: 0.325
21,GUAAAUGAAUUUCGAAGAATT against PIK3CB,inactive: 0.0911
22,CGUUAUGGUUUUAAUACUATT against MLSTD2,inactive: -0.294

row,Sequence,median seed-adjusted z-score
1,GGAGAAGGGUCAAUGACGATT against SNX6,inactive: 0
2,CUACAUCACCAGACAAUUUTT against TM7SF4,inactive: 0.0246
3,GAAUCGACCUAGCAAGUGUTT against DDX52,inactive: -0.2
4,CGGCACAUCUGGAGCUGAATT against DRD3,inactive: 0.0447
5,CGAGAGACCCUCUAUCCAATT against ATP6V0D2,inactive: -0.0346
6,GGGACAGGCUGCAAAGAAATT against AARS2,inactive: -0.52
7,CCAUUCCGGUGAUACACGATT against BAG3,inactive: -0.443
8,CCAGUAUACUUCUUAGAAATT against MCL1,inactive: 0.225
9,CCGGGACAAUGAAUUCUCATT against KCNK13,inactive: -0.0924
10,GGGCAGAACUGUACAAGGATT against NOL6,inactive: -0.751
11,GGCUGUCCGCUUAAAUCCATT against IFIT1,inactive: -0.489
12,GCAAACCGGUGGAUAUUGATT against ATAD2B,inactive: 0.0192
13,CCACGUGACUUUCAACAAUTT against NR4A2,inactive: -0.654
14,GGUGUGCGGUUCAUCUUCATT against ILVBL,inactive: 0.343
15,GUUUAUGUCUCAGCUCAGATT against NOL6,inactive: -0.751
16,AGUACUUCCUGACGAUGGATT against CST6,inactive: -0.237
17,CAGUUUGCUCUAUCAGUAATT against PSTPIP2,inactive: 0.0136
18,CCAAUACCCUGCUACCUGATT against LTA4H,inactive: -0.742
19,GAACCAACUGGAUUAAAGATT against IYD,inactive: -0.572
20,GCUGACUUCCCUACACCUATT against CD80,inactive: 0.553
21,GGAAAACGACAACACGAAATT against FREQ,inactive: -0.353
22,GAUCAAACUAGAACUCAUATT against COX7C,inactive: -0.461

row,Sequence,median seed-adjusted z-score
1,CAUCCUCUUUAUACCGGAATT against GLYATL2,inactive: -0.947
2,GGAUAGAAAGAAGCCUCUATT against ZDHHC1,inactive: 0
3,CCAUGAUCGUCCAUAAGAATT against FADS2,inactive: 0.0769
4,GCGUGAACGUGAAUCCGUUTT against UBR5,inactive: 0.114
5,GGCUUUUUCUCCUCCGUGATT against GRB10,inactive: -0.0341
6,GCAUCAGUUAUGUGGUUUATT against SLC25A24,inactive: -0.0384
7,GCUGAUAUAUCGGCAGUAUTT against AP4S1,inactive: -0.498
8,CAAACACUGGAGAUCAAAATT against GZMK,inactive: -0.303
9,AGAACUUGAUUCUCAAAUATT against GTPBP3,inactive: -0.197
10,GCGUGUUGCCUUUCCAAAUTT against P2RY8,inactive: -0.136
11,GGAGGCUUCUUUAUGAAUUTT against FXYD4,inactive: -0.0447
12,CAGUGAACCGAGUCUUUAATT against PLXNA3,inactive: 0.255
13,CAUGAAUCAAUGUCUGGUATT against PLAUR,inactive: -0.118
14,GGAACACUUUGGUCUUAGUTT against GALK2,inactive: 0
15,CCUAUGGACAAGUCUAUAATT against MAP4K4,inactive: 0.474
16,AGUCCACAAAUGUCACUGATT against CSRP3,inactive: 0.15
17,UGUCCUGCCUUUUAACGUATT against CDKN2A,inactive: -0.0748
18,GGAAUUAUAUGACAAAGGATT against DNAJA1,inactive: -0.00548
19,ACAUCGAUCCUUUCACCUATT against EPHB2,inactive: -0.325
20,GGUCCUUGGAGGUCGAAAATT against PGR,inactive: -0.0249
21,AGAAAUAUGUAAUCGCUAUTT against HDHD1A,inactive: -0.937
22,CCUUUGCACCUAUCUCUGATT against NEK8,inactive: -0.099

row,Sequence,median seed-adjusted z-score
1,GCAUUUACGUGGAAAAUGATT against ITGA2B,inactive: 0.172
2,GGGUGCACCAGAAACAUUATT against VEZF1,inactive: 0.974
3,CGGCUGCCUUCACCUCUUATT against SLC25A45,inactive: -0.246
4,CCCUGUCCAUUUGAUGUUATT against SLC25A2,inactive: 0.586
5,GCAUGCUGAUUGACUCCCATT against TMCO3,inactive: -0.441
6,GAAUGAUCGUGAUCCUCGUTT against AHCTF1,inactive: -0.501
7,CCCUCCAAAUAGCAAAUGUTT against PCOLCE2,active: -1.15
8,CCUAUUUGGUGUUAACAUATT against DIRAS1,inactive: -0.751
9,AGCCGAUGCUGCUGAGAAATT against ZFAND6,inactive: -0.181
10,GCAGAUUACUCAACAAGAATT against LMAN1,inactive: -0.118
11,GUACGGAUUUUGGAUAGUATT against TRPM7,inactive: -0.575
12,GGAAAUCCAUUCAAUCUGATT against GLYAT,inactive: 0.68
13,CGUCGAAGCCUUGCCGAAATT against LMX1B,inactive: 0.125
14,GGAGUUGAAGGCCUACAAATT against APOE,inactive: 0.0321
15,CCUGCUACGUGGACAAGAATT against ALDH3A1,inactive: -0.486
16,AGUGAAGGUUUGAAGAGUATT against APH1B,inactive: -0.135
17,GGGUUUUCAUCCCAAUUUATT against SLC5A3,inactive: -0.0305
18,GAGUCACUCUAUGACUUUUTT against LMBR1L,inactive: 0.349
19,CCAUGUGGGCUAUUGGAUATT against ZDHHC13,inactive: -0.381
20,GCAAGAGAGUCUCAAAUUUTT against EVX1,active: 1
21,GGGCUUCAAUGACGACCGATT against CPSF3L,inactive: -0.385
22,CGUCCUUCUGAGCUCAAAATT against ZNF711,inactive: 0.254

row,Sequence,median seed-adjusted z-score
1,GGAGGAUUCUUAAUAUCCATT against NPEPPS,inactive: 0
2,ACCAGAUCUCCUUCGCUGATT against GSTP1,inactive: -0.61
3,ACAGUGCUCUUCCUUCAAATT against ZNF3,inactive: -0.149
4,GGAGCUCACUCAGAUCUAUTT against APOL3,inactive: -0.0761
5,GAAAUGACCUGAACGAAGATT against NTN4,inactive: 0.462
6,CAUUGUAUAUGGGACACUATT against STARD5,inactive: -0.0333
7,GGCAUAUAGUUGAAUUACUTT against GPAM,inactive: 0.237
8,CCACUGUAUUUUGCUCCAATT against NQO1,inactive: 0
9,GCUCCAUGCUUCACGAAAATT against SLC37A3,inactive: 0.246
10,GAGUGAGACUGGGACAAGATT against TAPBP,inactive: -0.786
11,CAUCUACAAUGCGGAUUUATT against CSF2RA,inactive: -0.227
12,CCCAAAAGGUUACAUCGCATT against NMNAT3,inactive: 0.0197
13,CGCUCUCUUCACUUACGAATT against MYO10,inactive: 0.8
14,CAAGAUAUAUCACCUCGUATT against LOC442229,inactive: 0.183
15,GCCGUAUUUUGAUCAAGGUTT against BCAS2,inactive: -0.639
16,GGAACACUUUAAGUACGUATT against AKAP8L,inactive: -0.334
17,GGUUAUGCACAUUCGGAAATT against MAN1A2,inactive: 0.554
18,GAAGCGGUAUGUUCCAGUATT against EXOSC3,inactive: 0.569
19,GAAUAUCGCUUUGAUGGAUTT against GBE1,inactive: 0
